This note sets out measurements from paper PMC11748629, “Unidirectional MCM translocation away from ORC drives origin licensing” (Nature Communications, 2025).

Chains of the proteins cited; added tags and fusions are not shown. Lines headed by an entry give the natural chain unless they say otherwise; changes in a name come on top.
UniProt P32833: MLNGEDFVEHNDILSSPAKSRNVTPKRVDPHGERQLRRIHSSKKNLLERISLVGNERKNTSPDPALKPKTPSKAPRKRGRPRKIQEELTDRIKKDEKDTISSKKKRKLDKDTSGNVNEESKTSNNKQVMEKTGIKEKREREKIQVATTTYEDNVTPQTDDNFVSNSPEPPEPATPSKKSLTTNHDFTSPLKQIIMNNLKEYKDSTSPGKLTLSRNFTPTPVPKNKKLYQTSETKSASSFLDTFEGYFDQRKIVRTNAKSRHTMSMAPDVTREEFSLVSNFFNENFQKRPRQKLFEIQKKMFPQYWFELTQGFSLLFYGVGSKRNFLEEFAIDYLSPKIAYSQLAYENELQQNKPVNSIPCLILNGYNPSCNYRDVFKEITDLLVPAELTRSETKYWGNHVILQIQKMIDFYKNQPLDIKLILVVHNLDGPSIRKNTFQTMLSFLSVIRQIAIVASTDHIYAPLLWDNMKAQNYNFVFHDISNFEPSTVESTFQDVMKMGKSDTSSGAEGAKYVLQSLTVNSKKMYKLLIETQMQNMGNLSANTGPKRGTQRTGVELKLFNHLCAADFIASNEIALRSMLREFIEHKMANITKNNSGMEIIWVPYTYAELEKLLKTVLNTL
UniProt P54790: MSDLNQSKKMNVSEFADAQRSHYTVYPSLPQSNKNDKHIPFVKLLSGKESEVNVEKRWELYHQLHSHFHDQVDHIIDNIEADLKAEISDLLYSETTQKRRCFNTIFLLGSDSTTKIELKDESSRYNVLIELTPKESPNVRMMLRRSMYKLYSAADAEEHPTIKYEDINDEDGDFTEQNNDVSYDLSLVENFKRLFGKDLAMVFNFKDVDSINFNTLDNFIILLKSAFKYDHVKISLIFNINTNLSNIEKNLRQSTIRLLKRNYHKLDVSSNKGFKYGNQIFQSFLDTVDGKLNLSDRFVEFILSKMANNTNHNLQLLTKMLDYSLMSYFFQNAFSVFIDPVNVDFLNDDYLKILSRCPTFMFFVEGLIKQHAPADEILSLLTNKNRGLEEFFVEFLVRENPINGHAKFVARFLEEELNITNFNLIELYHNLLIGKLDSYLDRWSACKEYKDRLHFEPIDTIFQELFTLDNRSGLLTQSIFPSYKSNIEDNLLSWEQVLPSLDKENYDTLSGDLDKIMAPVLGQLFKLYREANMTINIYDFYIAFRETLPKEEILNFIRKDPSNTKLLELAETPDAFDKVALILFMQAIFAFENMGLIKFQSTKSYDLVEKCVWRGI
UniProt P54791: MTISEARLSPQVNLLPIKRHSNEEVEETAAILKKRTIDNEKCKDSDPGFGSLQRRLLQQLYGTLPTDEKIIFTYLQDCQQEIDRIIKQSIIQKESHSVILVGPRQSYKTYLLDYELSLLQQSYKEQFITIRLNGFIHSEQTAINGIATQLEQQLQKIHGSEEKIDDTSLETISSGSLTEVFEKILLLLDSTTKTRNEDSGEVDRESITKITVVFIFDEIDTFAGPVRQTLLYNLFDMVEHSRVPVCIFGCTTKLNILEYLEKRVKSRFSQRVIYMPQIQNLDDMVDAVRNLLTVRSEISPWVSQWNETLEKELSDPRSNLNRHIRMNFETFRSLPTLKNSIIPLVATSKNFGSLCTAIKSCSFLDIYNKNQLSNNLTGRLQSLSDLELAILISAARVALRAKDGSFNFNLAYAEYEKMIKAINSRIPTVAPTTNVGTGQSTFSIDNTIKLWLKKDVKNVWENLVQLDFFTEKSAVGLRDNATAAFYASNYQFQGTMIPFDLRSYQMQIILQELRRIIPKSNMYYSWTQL
UniProt P50874: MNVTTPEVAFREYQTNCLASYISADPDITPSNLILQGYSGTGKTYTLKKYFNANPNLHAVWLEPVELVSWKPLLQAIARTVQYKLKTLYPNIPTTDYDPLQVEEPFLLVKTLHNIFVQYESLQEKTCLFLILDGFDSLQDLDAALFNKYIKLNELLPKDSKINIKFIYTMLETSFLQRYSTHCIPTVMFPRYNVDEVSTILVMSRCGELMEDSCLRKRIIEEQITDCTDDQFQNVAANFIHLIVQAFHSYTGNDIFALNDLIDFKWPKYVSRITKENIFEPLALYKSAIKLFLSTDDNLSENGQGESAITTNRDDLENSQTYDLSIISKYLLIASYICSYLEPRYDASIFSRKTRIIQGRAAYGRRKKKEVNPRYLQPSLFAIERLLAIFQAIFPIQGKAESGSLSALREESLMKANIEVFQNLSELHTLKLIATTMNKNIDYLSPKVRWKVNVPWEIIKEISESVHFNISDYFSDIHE
UniProt P38826: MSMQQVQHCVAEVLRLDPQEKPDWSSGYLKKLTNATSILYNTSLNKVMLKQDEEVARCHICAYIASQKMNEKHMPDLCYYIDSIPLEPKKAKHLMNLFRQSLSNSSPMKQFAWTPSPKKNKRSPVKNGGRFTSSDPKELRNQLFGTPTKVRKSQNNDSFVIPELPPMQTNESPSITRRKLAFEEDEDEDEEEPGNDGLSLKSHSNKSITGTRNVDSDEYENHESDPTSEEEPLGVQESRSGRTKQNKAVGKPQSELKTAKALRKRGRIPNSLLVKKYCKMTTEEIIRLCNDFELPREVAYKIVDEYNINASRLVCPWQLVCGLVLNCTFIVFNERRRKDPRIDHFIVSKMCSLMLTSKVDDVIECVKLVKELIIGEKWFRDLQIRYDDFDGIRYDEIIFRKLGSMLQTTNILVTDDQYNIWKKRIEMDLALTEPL

In assay [1] the target is Origin Recognition Complex (ORC) (Saccharomyces cerevisiae) (UniProt P54784+P32833+P54790+P54791+P50874+P38826). The assay is described as follows: condition: only in the complex stalled with Mcm5 R549A and ATP (OC1M^Mcm5RA); 90 nM Cdc6 in the reaction; cryo-EM structure; OC1M^Mcm5RA: 30 nM MH-ARS1-MH DNA, 60 nM ORC, 90 nM Cdc6, 60 nM MCM-Cdt1 (Mcm5 R549A), 2 mM ATP; same buffer; 30 °C, 30 min; conformer 1 at 3.7 Å, conformer 2 at 3.4 Å (Orc1 ATPase domain seen only in conformer 1); both purified.

Assay [2] deals with T1, Orc1 (Saccharomyces cerevisiae) (UniProt P54784).
T1 sequence: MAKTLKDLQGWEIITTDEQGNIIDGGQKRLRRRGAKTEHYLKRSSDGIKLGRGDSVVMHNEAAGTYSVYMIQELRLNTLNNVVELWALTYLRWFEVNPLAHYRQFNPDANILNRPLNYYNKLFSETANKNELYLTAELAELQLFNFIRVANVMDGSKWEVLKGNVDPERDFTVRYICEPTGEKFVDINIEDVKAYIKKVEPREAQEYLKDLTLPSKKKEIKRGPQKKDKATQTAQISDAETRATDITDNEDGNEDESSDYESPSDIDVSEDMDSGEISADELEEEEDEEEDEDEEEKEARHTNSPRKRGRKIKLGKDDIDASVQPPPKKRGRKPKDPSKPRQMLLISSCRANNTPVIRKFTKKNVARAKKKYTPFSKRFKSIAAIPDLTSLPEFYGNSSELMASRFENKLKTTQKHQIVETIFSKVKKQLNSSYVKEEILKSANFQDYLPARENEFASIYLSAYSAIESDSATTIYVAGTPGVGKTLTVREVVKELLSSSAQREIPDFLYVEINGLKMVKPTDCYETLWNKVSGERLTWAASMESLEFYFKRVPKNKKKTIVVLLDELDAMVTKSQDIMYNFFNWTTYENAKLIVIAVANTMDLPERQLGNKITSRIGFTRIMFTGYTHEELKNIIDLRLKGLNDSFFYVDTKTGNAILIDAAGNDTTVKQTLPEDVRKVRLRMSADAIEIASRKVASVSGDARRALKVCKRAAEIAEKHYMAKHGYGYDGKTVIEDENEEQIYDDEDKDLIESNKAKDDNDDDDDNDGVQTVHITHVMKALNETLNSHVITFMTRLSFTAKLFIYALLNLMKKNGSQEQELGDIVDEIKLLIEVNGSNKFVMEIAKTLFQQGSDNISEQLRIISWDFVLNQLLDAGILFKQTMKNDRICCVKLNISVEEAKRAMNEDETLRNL
Nature of the assay: condition: only in the complex stalled with Mcm5 R549A and ATP (OC1M^Mcm5RA); cryo-EM structure; OC1M^Mcm5RA: 30 nM MH-ARS1-MH DNA, 60 nM ORC, 90 nM Cdc6, 60 nM MCM-Cdt1 (Mcm5 R549A), 2 mM ATP; same buffer; 30 °C, 30 min; conformer 1 at 3.7 Å, conformer 2 at 3.4 Å (Orc1 ATPase domain seen only in conformer 1); both purified.

These are yes or no findings as the source states them, for the method shown. Where a sequence is shown, tags or fusion partners need not be part of it.

B1: Saccharomyces cerevisiae Cdc6 (protein, UniProt P09119 1-513)
chain: MSAIPITPTKRIRRNLFDDAPATPPRPLKRKKLQFTDVTPESSPEKLQFGSQSIFLRTKALLQKSSELVNLNSSDGALPARTAEYEQVMNFLAKAISEHRSDSLYITGPPGTGKTAQLDMIIRQKFQSLPLSLSTPRSKDVLRHTNPNLQNLSWFELPDGRLESVAVTSINCISLGEPSSIFQKIFDSFQDLNGPTLQIKNMQHLQKFLEPYHKKTTFVVVLDEMDRLLHANTSETQSVRTILELFLLAKLPTVSFVLIGMANSLDMKDRFLSRLNLDRGLLPQTIVFQPYTAEQMYEIVIQKMSSLPTIIFQPMAIKFAAKKCAGNTGDLRKLFDVLRGSIEIYELEKRFLLSPTRGSLNSAQVPLTPTTSPVKKSYPEPQGKIGLNYIAKVFSKFVNNNSTRTRIAKLNIQQKLILCTIIQSLKLNSDATIDESFDHYIKAITKTDTLAPLQRNEFLEICTILETCGLVSIKKTKCKGKTKRFVDKIDVDLDMREFYDEMTKISILKPFLH
Turning to B1, the binding entry in assay [1] is on record as “no binding”.

B2: Mcm7 (protein, UniProt P38132 1-845)
chain: MSAALPSIQLPVDYNNLFNEITDFLVTFKQDTLSSDATRNENEDENLDAENIEQHLLEKGPKYMAMLQKVANRELNSVIIDLDDILQYQNEKFLQGTQADDLVSAIQQNANHFTELFCRAIDNNMPLPTKEIDYKDDVLDVILNQRRLRNERMLSDRTNEIRSENLMDTTMDPPSSMNDALREVVEDETELFPPNLTRRYFLYFKPLSQNCARRYRKKAISSKPLSVRQIKGDFLGQLITVRGIITRVSDVKPAVEVIAYTCDQCGYEVFQEVNSRTFTPLSECTSEECSQNQTKGQLFMSTRASKFSAFQECKIQELSQQVPVGHIPRSLNIHVNGTLVRSLSPGDIVDVTGIFLPAPYTGFKALKAGLLTETYLEAQFVRQHKKKFASFSLTSDVEERVMELITSGDVYNRLAKSIAPEIYGNLDVKKALLLLLVGGVDKRVGDGMKIRGDINVCLMGDPGVAKSQLLKAICKISPRGVYTTGKGSSGVGLTAAVMKDPVTDEMILEGGALVLADNGICCIDEFDKMDESDRTAIHEVMEQQTISISKAGINTTLNARTSILAAANPLYGRYNPRLSPLDNINLPAALLSRFDILFLMLDIPSRDDDEKLAEHVTYVHMHNKQPDLDFTPVEPSKMREYIAYAKTKRPVMSEAVNDYVVQAYIRLRQDSKREMDSKFSFGQATPRTLLGIIRLSQALAKLRLADMVDIDDVEEALRLVRVSKESLYQETNKSKEDESPTTKIFTIIKKMLQETGKNTLSYENIVKTVRLRGFTMLQLSNCIQEYSYLNVWHLINEGNTLKFVDDGTMDTDQEDSLVSTPKLAPQTTASANVSAQDSDIDLQDA
Turning to B2, the binding result in assay [2] is recorded as “no binding”.
